# Part of at least one peptide drawing is inferred or uncertain, most often the ends. Bridge positions count the residues as written; N and C are the ends. Peptide text beside a SMILES is read from it.
# Tested on: serum calcium concentration
# Assay: Biological assay of calcitonin analogs in vivo: reduction of serum calcium, 2×2 parallel line assay against synthetic salmon calcitonin standard
# Conditions: rats, subcutaneous injection, blood withdrawn 1 hour later, compared with synthetic salmon calcitonin standard
# Experimental: The biological potency of des-21-threonine-salmon calcitonin was determined by comparing the reduction of serum calcium concentration which followed administration by graded doses of des-Thr^21 -SCT and synthetic salmon calcitonin standard. Rats were divided into four groups of seven animals, and each group was assigned at random to a dose of standard or test solution. Low and high doses were chosen from the linear portion of the dose-response curve. For the salmon calcitonin standard, the values were 0.7 and 2.1 ng. peptide/100 g. body weight (BW). This dose approximates 3 and 9 MU/100 g. BW. Peptides were given by subcutaneous injection (0.2 ml/100 g. BW) and blood was withdrawn 1 hour later for serum calcium determination. Sera are processed and analyzed within two hours of collection. […]. Results were analyzed by a 2×2 parallel line assay [Gaddum, J. H., J. Pharm. Pharmacol., 6, 345 (1953)]. The standard salmon calcitonin used was independently determined to contain greater than 4,000 IU/mg. des-Thr^21 -SCT assayed at 5355 IU/mg.
structure (smiles),measurement,value
"CC(C)C[C@H](NC(=O)[C@H](CCCCN)NC(=O)CNC(=O)[C@H](CC(C)C)NC(=O)[C@@H](NC(=O)[C@@H]1CSSC[C@H](N)C(=O)N[C@@H](CO)C(=O)N[C@@H](CC(N)=O)C(=O)N[C@@H](CC(C)C)C(=O)N[C@@H](CO)C(=O)N[C@@H]([C@@H](C)O)C(=O)N1)C(C)C)C(=O)N[C@@H](CO)C(=O)N[C@@H](CCC(N)=O)C(=O)N[C@@H](CCC(=O)O)C(=O)N[C@@H](CC(C)C)C(=O)N[C@@H](Cc1c[nH]cn1)C(=O)N[C@@H](CCCCN)C(=O)N[C@@H](CC(C)C)C(=O)N[C@@H](CCC(N)=O)C(=O)N[C@@H](Cc1ccc(O)cc1)C(=O)N1CCC[C@H]1C(=O)N[C@@H](CCCNC(=N)N)C(=O)N[C@H](C(=O)N[C@@H](CC(N)=O)C(=O)N[C@H](C(=O)NCC(=O)N[C@@H](CO)C(=O)NCC(=O)N[C@H](C(=O)N1CCC[C@H]1C(N)=O)[C@@H](C)O)[C@@H](C)O)[C@@H](C)O [des-Thr^21 -SCT, des-21-threonine-salmon calcitonin] (H-CSNLSTCVLGKLSQELHKLQYPRTNTGSGTP-NH2; disulfide 1-7)",biological potency (reduction of serum calcium concentration),5355 IU/mg
